From patent US9718781B2, “Methods and compounds for treating proliferative disorders and viral infections” (University College Dublin, National University of Ireland, …, priority 2012, dated 2017)
Some entries share one result that the patent states for a list of compounds.

Sequences of proteins named here, by UniProt entry; tags and fusion partners are left off. Residues count along the entry.
UniProt P21731, 1-407 isoform P21731-2: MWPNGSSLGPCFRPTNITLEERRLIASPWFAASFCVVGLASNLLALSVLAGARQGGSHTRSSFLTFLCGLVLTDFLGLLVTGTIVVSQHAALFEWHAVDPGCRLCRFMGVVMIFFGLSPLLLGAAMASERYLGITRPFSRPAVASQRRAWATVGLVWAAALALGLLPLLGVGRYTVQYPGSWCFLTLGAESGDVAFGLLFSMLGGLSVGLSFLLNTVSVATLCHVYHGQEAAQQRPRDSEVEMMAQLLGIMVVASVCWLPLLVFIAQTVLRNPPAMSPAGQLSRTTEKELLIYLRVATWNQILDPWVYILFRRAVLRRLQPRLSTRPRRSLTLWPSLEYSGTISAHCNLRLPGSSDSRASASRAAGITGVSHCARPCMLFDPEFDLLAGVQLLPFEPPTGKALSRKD

Molecular target: T1, TPβ (Homo sapiens, UniProt P21731)
T1 construct: expressed in transfected cells
Assay: U46619-induced [Ca2+]i mobilization in HEK.TPβ cells
Type: cell-based
Details: screening assay; active compounds
Source text: An appropriate functional test for the evaluation of the agonistic and/or antagonistic potency of the compounds of the invention is the determination of calcium flux. Both TPα and TPβ are coupled to the G-protein Gαq. Therefore, stimulation of these receptors ultimately leads to a release of intracellular calcium ([Ca^2+]i) from intracellular stores. Consequently, the determination of [Ca^2+]i flux represents an appropriate functional test for the evaluation of the agonistic/antagonistic potency of compounds of the invention. Calcium can be measured using a molecule characterized by the covalent combination of a Ca^2+ chelating group and a fluorophore group. The Ca^2+ binding properties of these indicators are formed by the presence of a tetracarboxylic acid core as found for example in EGTA (Ethylene Glycol bis(2-aminoethyl)Tetraacetic Acid). Binding of Ca^2+ produces a wavelength shift in either the excitation or emission fluorescence spectra or a change in the emission intensity. Whereas the Ca^2+ binding to EGTA is pH dependent, recent dyes are designed from an EGTA derivative, BAPTA (1,2-Bis(2-Aminophenoxy)ethane-N,N,N′,N′-Tetraacetic Acid). Loading of these dyes inside cells commonly uses esterified forms (acetoxymethyl ester), which are able to cross the cell membranes and are subsequently hydrolyzed by esterases inside the cell.
Estimation of [Ca^2+]i flux is calculated from the fluorescence signal (F). For calibration, the maximal fluorescence (Fmax, Ca^2+-saturated form of the dye) as well as minimal fluorescence (Fmin, Ca^2+-free form of the dye) must be determined. These parameters are determined usually in situ after the experiment, for example by subsequent addition to the mixture of a cell-disrupting agent that releases all Ca^2+ such as Triton X100 and a potent Ca^2+-chelating agent such as EGTA. After subtraction of background fluorescence, [Ca^2+]; flux can be calculated for non-ratiometric indicators.
Intracellular [Ca^2+]; fluxes were measured using a fluorescence plate reader following a modified protocol of Kassack et al., ‘Quantitative comparison of functional screening by measuring intracellular Ca^2+ with radioligand binding at recombinant human dopamine receptors’, AAPS Pharmsci, 2002, 4(4); 102-111, in cell lines (e.g. HEK293 or other cell type) endogenously-expressing or over-expressing either TPα, TPβ or any other receptor or protein to be screened.
By way of example, HEK 293 cells which have been grown for 3-4 days in normal growth media (minimum essential media containing 10% FBS and 2 mmol/1 L-glutamine), under normal growth conditions (37° C., in humidified 5% CO2 atmosphere) are washed and harvested in KREBs-HEPES buffer (118 mM NaCl, 4.7 mM KCl, 1.2 mM MgSO4, 1.2 mM KH2PO4, 4.2 mM NaHCO3, 11.7 mM D-glucose, 1.3 mM CaCl2, 10 mM HEPES, pH 7.4). Cells are then incubated with 3 μM Fluo-4 in KREBs-HEPES buffer containing 1% Pluoronic F-127, for 1 hr at 25° C. with agitation. Then, cells are washed in KREBs-HEPES buffer containing 0.5% BSA and re-suspended at a final concentration of 3×10^5 cells/ml. Approx. 5.4×10^4 cells per well are plated in a 96-well plate and pre-incubated with test compounds for 10 m prior to measuring the fluorescence intensity at 520 nm for 25 seconds at 1 s intervals to monitor baseline using the Fluoroskan Ascent. Agonist (e.g., 1 μM U46619) is injected into separate wells by the automatic pipettor and fluorescence intensity is monitored at 520 nm for 75 seconds at 1 s intervals. Thereafter, Triton X100 and EGTA are added sequentially where Fmax refers to maximal fluorescence intensity measured after permeabilization of the cells with 2% Triton X100 and Fmin refers to fluorescence intensity measured after addition of 1 mM EGTA.
The dye Fluo-4 has its excitation peak at 480 nm, in the visible spectra, which spare cells to be damaged by UV (340-360 nm) stimulation and reduces auto-fluorescence of cells. […]

For COc1ccc(-c2cccc(Oc3ccc(-c4ccco4)cc3S(=O)(=O)NC(=O)NC(C)(C)C)c2)cc1 [NTP21], which “inhibition of U46619-mediated responses in HEK.TPβ cells” value (“inhibition of U46619-mediated responses” below) is on record?
Its value is at least 50%.

With COc1ccc(-c2cccc(Oc3ccc(-c4cn[nH]c4)cc3S(=O)(=O)NC(=O)NC(C)(C)C)c2)cc1 [NTP18] as the compound, how does the “inhibition of U46619-mediated responses” value read?
The value was at least 50%.

For COc1ccc(-c2cccc(Oc3ccc(-c4ccoc4)cc3S(=O)(=O)NC(=O)NC(C)(C)C)c2)cc1 [NTP20], which “inhibition of U46619-mediated responses” value is on record?
The value was at least 50%.

How did the “inhibition of U46619-mediated responses” value turn out when COc1ccc(-c2cccc(Oc3ccc(Br)cc3S(=O)(=O)NC(=O)NC(C)(C)C)c2)cc1 [NTP7, 5-bromo-N-(tert-butylcarbamoyl)-2-((4′-methoxy-[1,1′-biphenyl]-3-yl)oxy)benzenesulfonamide] was run?
The value was at least 50%.

For COc1ccc(-c2cccc(Oc3ccc(C(=O)NCc4ccccn4)cc3S(=O)(=O)NC(=O)NC(C)(C)C)c2)cc1 [NTP11], which “inhibition of U46619-mediated responses” value is on record?
Its value is at least 50%.

For COc1ccc(-c2cccc(Oc3ccc(C(=O)N4CCC4)cc3S(=O)(=O)NC(=O)NC(C)(C)C)c2)cc1 [NTP17], which “inhibition of U46619-mediated responses” value is on record?
The value was at least 50%.

COc1ccc(-c2cccc(Oc3ccc(F)cc3S(=O)(=O)NC(=O)NC(C)(C)C)c2)cc1 [NTP8, N-(tert-butylcarbamoyl)-5-fluoro-2-((4′-methoxy-[1,1′-biphenyl]-3-yl)oxy)benzene-sulfonamide] was tested. Which “inhibition of U46619-mediated responses” value did it give?
The value was at least 50%.

How did the “inhibition of U46619-mediated responses” value turn out when COc1ccc(-c2cccc(Oc3ccc(C(=O)Nc4ccccc4)cc3S(=O)(=O)NC(=O)NC(C)(C)C)c2)cc1 [NTP25] was run?
The value was at least 50%.

COc1ccc(-c2cccc(Oc3ccc(C(C)=O)cc3S(=O)(=O)NC(=O)NC(C)(C)C)c2)cc1 [NTP9, 5-acetyl-N-(tert-butylcarbamoyl)-2-((4′-methoxy-[1,1′-biphenyl]-3-yl)oxy)benzenesulfonamide] was tested. Which “inhibition of U46619-mediated responses” value did it give?
Its value is at least 50%.

For COc1ccc(-c2cccc(Oc3ccc(C#N)cc3S(=O)(=O)NC(=O)NC(C)(C)C)c2)cc1 [NTP4, N-(tert-butylcarbamoyl)-5-cyano-2-((4′-methoxy-[1,1′-biphenyl]-3-yl)oxy)benzenesulfonamide], which “inhibition of U46619-mediated responses” value is on record?
The value was at least 50%.

For COc1ccc(-c2cccc(Oc3ccc(C(=O)N4CC(O)C4)cc3S(=O)(=O)NC(=O)NC(C)(C)C)c2)cc1 [NTP23, N-(tert-butylcarbamoyl)-5-(3-hydroxyazetidine-1-carbonyl)-2-((4′-methoxy-[1,1′-biphenyl]-3-yl)oxy)benzenesulfonamide], which “inhibition of U46619-mediated responses” value is on record?
The value was at least 50%.
